The target of assay [1] is serpin B13 (target antigen, species not stated). Description: surface plasmon resonance.
Assay [2] has the same target. Description: ELISA and SPR. Background: An ELISA detects its analyte on a solid surface through an enzyme-linked reagent.

Results are given in words; binding and its absence hold for the method and conditions named. Binding can be weak; no strength is given.

B1: recombinant fully human anti-serpinB13 antibody Clone 3 (antibody, human IgG1, kappa, V domains shown)
VH: QVQLQQWGAGLLKPSETLSLTCAVYGGSFSGYYWSWIRQPPGKGLEWIGEINHSGSTNYNPSLKSRVTISVDTSKNQFSLKLSSVTAADTAVYYCARRYCSGGSCYLVGTGSELDYWGQGTLVTVSS
VL: DIQMTQSPSTLSASVGDRVTITCRASQSISSWLAWYQQKPGKAPKLLIYKASSLEIGVPSRFSGSGYGTEFTLTISSLQPDDFATYYCLQYSTHSTFGQGTRVEIKR
notes: also called mAb3; CLONE3-H(m1) / CLONE3-L(m1)
On to B1, for which the binding entry in assay [1] is given as “binds”.

B2: recombinant fully human anti-serpinB13 antibody Clone 2 (antibody, human IgG1, kappa, V domains shown)
VH: QMQLVQSGGGVVRPGGSLRLSCAASGFTFDDYGMSWVRQAPGKGLEWVSGINWNGGSTGYADSVKGRFTISRDNAKNSLYLQMNSLRAEDTALYYCARESSMTTVTTYLLREVGVGLDFDYWGQGTLVTVSS
VL: ETTLTQSPGTLSLSPGERATLSCRASQTVSGSYLAWYQQKPGQPPRLLIYGASSRATGIPDRFSGSGSGTDFTLTISRLEPEDFAVYYCQDYGSSRTFGQGTKVELKR
notes: also called mAb2; CLONE2-H(m1) / CLONE2-L(m1)
With B2, the binding entry in assay [1] was “binds”.

B3: B29_graft humanized antibody (antibody, human IgG1, kappa, V domains shown)
VH: EIQLVESGGGLVQPGGSVRLSCAASGYNFKTYGMSWVRQAPGKGLEWMGWINTYSGMPTYADDFKGRFTFSLDTSKNTAYLQINSLRAEDTAVYFCARPLLGLDYWGQGTLVTVSS
VL: DIQMTQSPSSLSASVGDRVTITCKSSQSLLHSDGKTFLNWFQQKPGKSPKLLIYLVSKLESGVPSRFSGSGSGTDFTLTISSLQPEDFATYYCLQHTHFPLTFGQGTKVEIKR
Turning to B3, the binding result in assay [2] is recorded as “binds”.

B4: mouse monoclonal antibody to serpin B13 (clone B29) (antibody, V domains shown)
VH: QIQLVQSGPELKKPGETVKISCKASGYTFTTYGMSWVKQAPGKGLKWMGWINTYSGMPTYADDFKGRFAFSLETSATTAYLQINNLKNEDTATYFCARPLLGLDYWGQGTTLTVSS
VL: DIVMTQTPLSLSVTIGQPASISCKSSQSLLHSDGKTFLNWFLQRPGQSPKLLIYLVSKLESGIPDRFSGSGSGTDFTLKISRVEVEDLGVYYCLQHTHFPLTFGAGTKLEIK
For the molecule B4, in assay [1], the binding entry is “binds”.

B5: B29 mouse/human chimeric IgG (antibody, V domains shown)
VH: QIQLVQSGPELKKPGETVKISCKASGYTFTTYGMSWVKQAPGKGLKWMGWINTYSGMPTYADDFKGRFAFSLETSATTAYLQINNLKNEDTATYFCARPLLGLDYWGQGTTLTVSS
VL: DIVMTQTPLSLSVTIGQPASISCKSSQSLLHSDGKTFLNWFLQRPGQSPKLLIYLVSKLESGIPDRFSGSGSGTDFTLKISRVEVEDLGVYYCLQHTHFPLTFGAGTKLEIKR
Turning to B5, the binding result in assay [2] is reported as “binds”.

The record behind these values is patent US20260116996A1 (REGENTS OF THE UNIVERSITY OF MINNESOTA, published 2026).
